This note sets out measurements from PubChem BioAssay AID1347426 (Functional Genomics Laboratory (NCATS/FGL), 2020).

In all, about 31,000 sequences went through this assay and about 1,400 (4.5%) were called active.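 Rule for the calls: active = median seed-adjusted z-score above 1 or below -1; inactive = the rest.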 The list shows a part of the results.

A short description of this experiment: Novel Modifiers of Survival Motor Neuron (SMN) Protein: Gene Identification via Genome-wide siRNA Screen.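 Note: luminescence tracks full-length SMN protein made from the SMN2 reporter.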 The note with it: HEK293T SMN2-luciferase reporter, siRNA knockdown, 72 h; actives lie on both sides. In a few lines:
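HEK293T cells stably expressing an SMN2 splicing/cDNA-luciferase reporter were reverse-transfected with a druggable-genome siRNA library and read by luminescence at 72 hours; hits defined by MAD score above 1.0 or below -1.0.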
On to GAAUUGGGAACACUAGUUATT against ATP8B4, for which the median seed-adjusted z-score was inactive: -0.00244. The figure for CGAAAGAUUUAUGAGAUUUTT against TRAPPC4 is inactive: 0. In the case of GCCUCACGUUUGUCAGUAUTT against WNK3, the median seed-adjusted z-score is inactive: -0.466. Turning to CGAGUGAAGUGGGAUGAGATT against STARD5, the median seed-adjusted z-score is inactive: -0.0333.

On to GAAGCGCAGAUCAAAAGGATT against LIN28, for which the median seed-adjusted z-score was inactive: -0.348.

GGCUGUUGACUGUACUACATT against KCTD3: the median seed-adjusted z-score was inactive: 0.603.

For the sequence GAAGUUUGACCAUGACUUUTT against ACCN5, the median seed-adjusted z-score was inactive: 0.227.

For the sequence CGAUUUGAGCGGAGUGAGATT against KCTD7, the median seed-adjusted z-score was inactive: 0.484.

Consider GCUCCGGUAUGAAAUCAAATT against TIMP4, for which the median seed-adjusted z-score is inactive: -0.112. For GGAAAUUACGGCUACAGAATT against AP1S3, the median seed-adjusted z-score was inactive: 0.153.

With GCCUACACGUUGGAUGAUATT against MAOB, the median seed-adjusted z-score is inactive: 0.

On to CAGUGACUAUGGAUGUGCATT against NAT10, for which the median seed-adjusted z-score is inactive: 0. Consider GCGGAAAGGUGGACUUUGATT against CABP2, for which the median seed-adjusted z-score is inactive: 0.323.

For GGACUUACACGUUUACAGATT against ADAM8, the median seed-adjusted z-score is inactive: -0.407. The figure for GUAUGAGUGUAAUAUCUGUTT against ZBTB43 is inactive: 0.143; for GCUAUGUACUUGCUGUGGATT against ALG1 it is inactive: 0; for AGUACAUGCGAGACCCUGATT against LSM7 it is inactive: -0.45. The figure for CAAUGUGCCUUACAUCUAUTT against TXNRD1 is inactive: 0.485; for GGCACGUCCUGUUACACCATT against LMO4 it is inactive: -0.067; for GCCUUCUGAUGGUAGAUCUTT against RANBP17 it is inactive: -0.123. Take GAAACAGUGCUAGAUAAAATT against SULT1C2: the median seed-adjusted z-score is inactive: 0. The figure for AGAUGAUCCGCAAUCCCAATT against EPHB2 is inactive: -0.325; for GCUGAUGACUGUCGUUAUATT against TBX3 it is inactive: 0; for CUCUAAUGUUAAUCCGAGATT against MED14 it is active: -3.22.

GGCUGCUCAAGUUCCCAGATT against MVK: the median seed-adjusted z-score was inactive: -0.192. With GCUGACCGCUGGGUGAUAATT against TMPRSS6, the median seed-adjusted z-score is active: 1.29. The figure for GAUUUGCUCUUAAGUGAAATT against PCDHB11 is inactive: -0.257; for GGACGGUCCGCUCACAAAATT against NLGN2 it is inactive: 0.204. On to CGAACUGCUUUAUGACCUATT against KIF20A, for which the median seed-adjusted z-score was inactive: 0.906. For AGAUCAGCAAGAACCCGAATT against CDC14B, the median seed-adjusted z-score was inactive: 0.325. For CCCGUUACCUUUGCCGAAATT against TRIM29, the median seed-adjusted z-score is inactive: 0.331. Regarding AGAACAUUAUUGGCCGGGATT against FOXB2, the median seed-adjusted z-score is inactive: -0.0149.

For the sequence GGCUCAACACUUCAUGACATT against CD96, the median seed-adjusted z-score was inactive: 0.461. The figure for CAGCUGAAAUUUGCCCGCATT against ZNF197 is inactive: -0.219; for CCCAUUUGAUCGACAAGUATT against TRIM23 it is inactive: -0.318.

As to GGCAGUCCCUAUUAGCUAATT against CGREF1, the median seed-adjusted z-score was inactive: 0.0743. For CAGUGCAACCUGGAGAGAATT against NRBP2, the median seed-adjusted z-score is inactive: 0.093.

Take GCUUAGCAACCUGGAGUUUTT against HAGHL: the median seed-adjusted z-score was inactive: -0.334.

As to CGAUGACAACGGAUACCCATT against ITGA2B, the median seed-adjusted z-score is inactive: 0.172. For CCAAGAAAAAGAGAUCGUATT against ZNF643, the median seed-adjusted z-score is inactive: -0.0134. For the sequence GCAUACAAGUGACAAUGGUTT against RNF128, the median seed-adjusted z-score was inactive: -0.377.

With CGAGCCCAAGGAACAUGAATT against NKX2-3, the median seed-adjusted z-score is inactive: -0.2. Then AGUACAACCUGGUGACGCATT against ZNF710, with inactive: 0. Then AUACUAAAGGUAAAUCAUATT against ZNF705A, with inactive: 0.669. With CCAGUUCGACCUGAACAAATT against ZBTB41, the median seed-adjusted z-score is inactive: 0.173. Take CUAUUGGUGUGGUGCUGAATT against FCRL4: the median seed-adjusted z-score is inactive: -0.39.

Take CCAGCUUCUUUGACUCAGATT against DVL3: the median seed-adjusted z-score is inactive: -0.57. For CCAAGGAGGUGCACUAUAATT against FHL1, the median seed-adjusted z-score was inactive: 0.574. GGUGUACGAUUUGACCAAATT against CYB5A: the median seed-adjusted z-score was inactive: 0.226.

On to CGACUGCCUUGUCUAUGCATT against ZNRF2, for which the median seed-adjusted z-score is inactive: 0. On to CUUGGACACUGAAAACGCATT against ITGAM, for which the median seed-adjusted z-score was active: -1.56. The figure for AGACUAGGGCAGUUCCUUATT against KCNK5 is inactive: 0; for CUACUAUUCAGAGACAACATT against GPR3 it is inactive: 0. Then GGGAUGCUCUACUACCAGATT against NCF2, with inactive: -0.201. The figure for GCCCAUUAAUAUUAUAGGUTT against LAP3 is inactive: 0.0175; for GAAGCUACAUGGGAAGUGUTT against SIRT7 it is inactive: -0.427; for CAACCUAUAAAAUACUCGATT against SLC24A1 it is inactive: 0.372. As for GAACCCUCCUAAAUCCAUATT against DUSP3, the median seed-adjusted z-score was inactive: -0.00768. The figure for CCUUCAUCCGGAAAUUAAATT against ZIM3 is inactive: -0.02; for GGAUCAUACUAGAAGACUATT against TREM1 it is inactive: 0. Then GAGAAGAACCUGUUCGUCATT against SLC9A3, with inactive: 0.422; and CAUAGAUACUUACGGAAAATT against SLC9A4, with inactive: 0.693.

Turning to CAAACCUAAUUGAUCAGCATT against BHLHB2, the median seed-adjusted z-score was inactive: 0. Then GGCCUGAUGUUGGUCAAGATT against NOD2, with inactive: 0.129. For CCUUUGAGGUGUACACGGATT against CENTD2, the median seed-adjusted z-score is inactive: -0.305. Turning to GGACCGCUGUCUAUGACAATT against LRFN2, the median seed-adjusted z-score was inactive: 0. With CAUCUAUAUAGGGAAAACATT against LILRA2, the median seed-adjusted z-score is inactive: -0.103. Then GGACUACACCAGGUUCCAATT against STK10, with inactive: 0.0138; and GGAAGAUCGAAAGUGCGAATT against GZMB, with inactive: -0.0378; and CCAAAGAACAUUUGACUCATT against KLF16, with inactive: 0.461. With CCUCCAGUCUAGUUGAUCATT against ZNF560, the median seed-adjusted z-score is inactive: 0.0927.

For the sequence GAAGUUCAUGGAUCAACAUTT against NUDC, the median seed-adjusted z-score was inactive: -0.227. Then GCAAACCAGUGAACACCUUTT against RNASE1, with inactive: 0.085; and GCAACAAGGUCAUUAGAUATT against FSD1L, with inactive: 0.166; and GACCUUCCAUAUGUCCAAATT against DUSP19, with inactive: 0.343.

For CAACUUUGAAUAUACCCUATT against GRHL1, the median seed-adjusted z-score was inactive: 0.115. Consider AGACUAUCGUGGACGAAAATT against PHOSPHO1, for which the median seed-adjusted z-score is inactive: -0.296. Then GCACAAGUGUAUUCAACCATT against COPS3, with inactive: 0.176; and GUAUCGAGAUCGUUAUGAUTT against EIF4B, with inactive: -0.374; and CAAUAGGUUAUGUUAUUCATT against PLSCR1, with inactive: 0.661.

In the case of GGAGCCUAUCAUAACCUUATT against ZNF484, the median seed-adjusted z-score was inactive: 0.2. Regarding CAAUUACCCGGACUAUGUUTT against CPT1C, the median seed-adjusted z-score was inactive: -0.458. As to CCAUCAACCUGUACCCUCUTT against NUDT21, the median seed-adjusted z-score was inactive: 0.0851. The figure for CCAAUAUCAUAAUAGGCAUTT against ADAM22 is inactive: 0.292; for GCUCAGAAAAUAGUCUAUATT against RGS13 it is inactive: 0.0487. With GUAGGACUGUAGACAGUGATT against FGFR2, the median seed-adjusted z-score is inactive: 0.158. Then CAAGAAGACGGGAUCAGAATT against MYRIP, with inactive: 0.141; and GCAGUCAACUCAAAUGCAATT against ADARB2, with inactive: -0.249; and GAGAGUAUCGAAACCGUUUTT against GNPTAB, with inactive: 0.296.

With CCUUGGGAAUUAUCCACCATT against MPZL1, the median seed-adjusted z-score was inactive: 0.376. For the sequence GAAUCAAUAGAGCCACGAATT against GGA1, the median seed-adjusted z-score is inactive: 0.172. As to GCAACUUCAGUGUCAUUCUTT against PTGER2, the median seed-adjusted z-score was inactive: 0. Then GCAUUUGCCCAGUUCAUGATT against RBM28, with inactive: 0.649; and GCAUUUACCAUAAAUCCGATT against PCDHA13, with inactive: -0.624. The figure for GAAACUUUGUUCACCGAUUTT against DACH2 is inactive: -0.00102; for AGCUCCACGUCUACAAGAATT against ENPP7 it is inactive: -0.478; for AAACCGUGGAGUAAACUCATT against ONECUT2 it is inactive: -0.696.

As to GGAUGAUAAUGCUAAUCCATT against PPP1R3A, the median seed-adjusted z-score is inactive: -0.241. Take CGACCCAGCCCUGAUCUUATT against CHST3: the median seed-adjusted z-score is inactive: 0.319.

Regarding GAAGCAUGCAAGACAGAAATT against UBE2T, the median seed-adjusted z-score was inactive: -0.0157. On to GGCGACUGUUUAUACAUGATT against ALDH7A1, for which the median seed-adjusted z-score is inactive: -0.406.

On to CGUCUUGCCUUUGUGCUGATT against CHMP1A, for which the median seed-adjusted z-score is inactive: 0. With GCGCAGCUACUUUUCCCAATT against DAZAP1, the median seed-adjusted z-score is inactive: 0.

Consider CCGUCACAGUAGAGACUAUTT against LRRC4C, for which the median seed-adjusted z-score was inactive: -0.122.

GCAUUUGUAGGGUUACGGATT against GABRG1: the median seed-adjusted z-score was inactive: 0.312.

On to ACCUGAUCAUGCGCCCUGATT against WFIKKN1, for which the median seed-adjusted z-score is inactive: 0.

Turning to CCCACUACAGAAGACUUAUTT against SLC4A1, the median seed-adjusted z-score was inactive: -0.861. The figure for GAAGAGCUGUGAAAGGCAATT against ZNF274 is inactive: 0.452.
